Results: the supplement of paper PMC10849652
This is one part of the list. Residues, ends and D or L forms follow the SMILES beside them. *: point of attachment. Cbz = O=C(OCc1ccccc1)*

By UniProt entry, the sequences of proteins in these tests, tags left out. Where a name states a change or a piece, a line headed by the entry shows the natural chain unless it says otherwise.
UniProt P35443: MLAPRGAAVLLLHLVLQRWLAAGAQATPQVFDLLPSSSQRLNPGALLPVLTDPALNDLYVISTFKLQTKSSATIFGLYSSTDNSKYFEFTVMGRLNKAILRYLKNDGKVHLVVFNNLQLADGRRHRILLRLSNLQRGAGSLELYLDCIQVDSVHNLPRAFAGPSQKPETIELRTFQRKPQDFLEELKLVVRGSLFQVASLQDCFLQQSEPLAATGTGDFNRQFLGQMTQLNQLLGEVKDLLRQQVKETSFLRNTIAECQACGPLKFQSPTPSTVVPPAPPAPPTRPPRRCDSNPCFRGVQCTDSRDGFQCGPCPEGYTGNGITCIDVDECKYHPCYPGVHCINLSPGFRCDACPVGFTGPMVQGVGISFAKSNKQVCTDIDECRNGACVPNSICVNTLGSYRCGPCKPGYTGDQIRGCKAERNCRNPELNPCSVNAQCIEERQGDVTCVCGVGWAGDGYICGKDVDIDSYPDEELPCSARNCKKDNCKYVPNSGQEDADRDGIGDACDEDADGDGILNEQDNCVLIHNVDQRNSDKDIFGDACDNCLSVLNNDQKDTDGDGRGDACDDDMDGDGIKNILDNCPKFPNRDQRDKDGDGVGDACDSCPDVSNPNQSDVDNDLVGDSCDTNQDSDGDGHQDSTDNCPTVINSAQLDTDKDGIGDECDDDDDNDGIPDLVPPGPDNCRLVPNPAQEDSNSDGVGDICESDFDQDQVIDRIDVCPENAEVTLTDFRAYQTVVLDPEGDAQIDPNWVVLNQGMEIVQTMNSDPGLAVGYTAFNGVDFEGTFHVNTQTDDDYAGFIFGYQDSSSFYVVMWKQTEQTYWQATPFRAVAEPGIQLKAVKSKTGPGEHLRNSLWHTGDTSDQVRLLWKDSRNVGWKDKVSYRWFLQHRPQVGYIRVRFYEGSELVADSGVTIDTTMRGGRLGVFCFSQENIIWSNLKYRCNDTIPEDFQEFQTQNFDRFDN
UniProt Q99426: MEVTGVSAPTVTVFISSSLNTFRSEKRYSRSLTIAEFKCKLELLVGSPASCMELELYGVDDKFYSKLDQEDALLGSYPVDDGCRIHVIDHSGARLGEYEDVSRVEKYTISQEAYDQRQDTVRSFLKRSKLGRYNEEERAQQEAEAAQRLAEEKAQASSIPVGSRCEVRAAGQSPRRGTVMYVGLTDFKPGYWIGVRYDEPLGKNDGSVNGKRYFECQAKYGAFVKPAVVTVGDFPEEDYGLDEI
UniProt Q9NWX6: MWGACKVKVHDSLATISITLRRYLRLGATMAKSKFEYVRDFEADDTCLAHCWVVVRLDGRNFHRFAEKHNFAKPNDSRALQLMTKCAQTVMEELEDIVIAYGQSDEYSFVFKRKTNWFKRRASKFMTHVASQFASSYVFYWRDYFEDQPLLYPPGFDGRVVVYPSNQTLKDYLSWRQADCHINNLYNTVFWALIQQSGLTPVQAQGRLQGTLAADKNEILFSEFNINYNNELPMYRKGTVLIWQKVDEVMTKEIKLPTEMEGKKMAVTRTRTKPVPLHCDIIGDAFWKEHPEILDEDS
UniProt Q99595: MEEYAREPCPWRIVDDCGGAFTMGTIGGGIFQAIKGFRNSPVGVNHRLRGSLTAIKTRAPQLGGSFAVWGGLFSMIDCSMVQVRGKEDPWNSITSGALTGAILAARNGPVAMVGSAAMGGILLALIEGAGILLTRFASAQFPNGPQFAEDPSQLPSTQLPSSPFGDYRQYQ
UniProt Q9NPL8: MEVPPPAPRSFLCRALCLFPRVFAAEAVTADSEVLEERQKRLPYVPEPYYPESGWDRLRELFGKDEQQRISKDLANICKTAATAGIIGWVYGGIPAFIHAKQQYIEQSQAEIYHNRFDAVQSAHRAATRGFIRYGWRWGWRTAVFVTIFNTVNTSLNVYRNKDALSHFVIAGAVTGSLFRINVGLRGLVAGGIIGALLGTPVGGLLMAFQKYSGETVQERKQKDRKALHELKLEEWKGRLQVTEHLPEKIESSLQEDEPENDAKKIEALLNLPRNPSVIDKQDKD
UniProt P31483: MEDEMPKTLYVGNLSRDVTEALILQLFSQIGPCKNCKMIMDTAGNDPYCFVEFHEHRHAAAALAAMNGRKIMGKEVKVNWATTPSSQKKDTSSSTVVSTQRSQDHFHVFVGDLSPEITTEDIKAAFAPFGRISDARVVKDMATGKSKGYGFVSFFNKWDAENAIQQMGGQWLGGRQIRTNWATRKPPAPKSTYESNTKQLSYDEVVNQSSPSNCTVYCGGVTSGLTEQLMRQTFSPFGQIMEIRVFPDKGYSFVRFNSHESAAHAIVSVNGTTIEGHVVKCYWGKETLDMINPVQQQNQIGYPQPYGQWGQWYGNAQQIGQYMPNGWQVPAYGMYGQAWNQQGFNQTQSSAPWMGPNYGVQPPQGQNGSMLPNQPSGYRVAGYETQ
UniProt Q96BS2: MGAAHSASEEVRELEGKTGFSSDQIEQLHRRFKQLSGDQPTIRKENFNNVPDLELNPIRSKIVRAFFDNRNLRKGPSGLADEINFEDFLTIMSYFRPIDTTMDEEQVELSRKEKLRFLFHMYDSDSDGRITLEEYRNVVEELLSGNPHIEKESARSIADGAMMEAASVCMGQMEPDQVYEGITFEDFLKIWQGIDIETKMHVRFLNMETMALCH
UniProt Q86XR7, whole entry, looked up: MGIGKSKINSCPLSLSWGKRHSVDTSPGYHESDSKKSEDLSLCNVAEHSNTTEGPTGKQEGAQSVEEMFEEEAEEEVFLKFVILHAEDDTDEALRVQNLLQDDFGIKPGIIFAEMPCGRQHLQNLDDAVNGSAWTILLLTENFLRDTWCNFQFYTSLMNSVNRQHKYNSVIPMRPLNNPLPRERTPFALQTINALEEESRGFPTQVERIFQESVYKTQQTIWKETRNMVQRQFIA
UniProt Q9Y4P3: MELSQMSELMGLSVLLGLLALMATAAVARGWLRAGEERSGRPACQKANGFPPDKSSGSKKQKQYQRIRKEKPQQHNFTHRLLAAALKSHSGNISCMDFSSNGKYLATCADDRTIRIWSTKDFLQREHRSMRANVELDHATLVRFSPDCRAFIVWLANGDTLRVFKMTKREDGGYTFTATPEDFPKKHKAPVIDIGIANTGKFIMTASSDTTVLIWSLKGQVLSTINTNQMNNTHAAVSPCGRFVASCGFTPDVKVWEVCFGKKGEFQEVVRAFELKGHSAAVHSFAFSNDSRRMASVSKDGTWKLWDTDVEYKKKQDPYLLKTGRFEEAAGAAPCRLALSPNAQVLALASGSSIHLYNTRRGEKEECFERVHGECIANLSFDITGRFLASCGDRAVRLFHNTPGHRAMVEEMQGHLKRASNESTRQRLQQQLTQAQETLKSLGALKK
UniProt Q9UP52: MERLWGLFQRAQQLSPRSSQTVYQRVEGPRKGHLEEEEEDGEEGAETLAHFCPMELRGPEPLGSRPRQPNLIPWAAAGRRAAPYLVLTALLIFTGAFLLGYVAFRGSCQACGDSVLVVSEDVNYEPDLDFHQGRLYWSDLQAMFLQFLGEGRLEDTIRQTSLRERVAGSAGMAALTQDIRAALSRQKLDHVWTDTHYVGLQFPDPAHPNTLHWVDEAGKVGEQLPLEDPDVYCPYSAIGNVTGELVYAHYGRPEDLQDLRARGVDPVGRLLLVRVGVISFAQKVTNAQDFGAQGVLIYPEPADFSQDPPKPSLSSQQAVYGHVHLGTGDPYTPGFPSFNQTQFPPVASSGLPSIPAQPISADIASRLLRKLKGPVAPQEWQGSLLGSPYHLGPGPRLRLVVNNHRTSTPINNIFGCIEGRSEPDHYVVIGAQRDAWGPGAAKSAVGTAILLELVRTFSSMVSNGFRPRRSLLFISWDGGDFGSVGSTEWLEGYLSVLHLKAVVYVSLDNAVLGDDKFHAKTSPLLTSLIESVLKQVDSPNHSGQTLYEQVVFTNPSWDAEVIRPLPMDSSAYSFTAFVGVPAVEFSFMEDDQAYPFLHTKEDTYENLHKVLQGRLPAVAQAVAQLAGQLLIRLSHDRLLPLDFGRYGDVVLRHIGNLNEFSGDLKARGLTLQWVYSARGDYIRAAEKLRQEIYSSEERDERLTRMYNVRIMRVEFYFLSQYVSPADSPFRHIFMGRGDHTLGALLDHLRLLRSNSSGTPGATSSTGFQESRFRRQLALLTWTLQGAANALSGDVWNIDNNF
UniProt Q9BTW9: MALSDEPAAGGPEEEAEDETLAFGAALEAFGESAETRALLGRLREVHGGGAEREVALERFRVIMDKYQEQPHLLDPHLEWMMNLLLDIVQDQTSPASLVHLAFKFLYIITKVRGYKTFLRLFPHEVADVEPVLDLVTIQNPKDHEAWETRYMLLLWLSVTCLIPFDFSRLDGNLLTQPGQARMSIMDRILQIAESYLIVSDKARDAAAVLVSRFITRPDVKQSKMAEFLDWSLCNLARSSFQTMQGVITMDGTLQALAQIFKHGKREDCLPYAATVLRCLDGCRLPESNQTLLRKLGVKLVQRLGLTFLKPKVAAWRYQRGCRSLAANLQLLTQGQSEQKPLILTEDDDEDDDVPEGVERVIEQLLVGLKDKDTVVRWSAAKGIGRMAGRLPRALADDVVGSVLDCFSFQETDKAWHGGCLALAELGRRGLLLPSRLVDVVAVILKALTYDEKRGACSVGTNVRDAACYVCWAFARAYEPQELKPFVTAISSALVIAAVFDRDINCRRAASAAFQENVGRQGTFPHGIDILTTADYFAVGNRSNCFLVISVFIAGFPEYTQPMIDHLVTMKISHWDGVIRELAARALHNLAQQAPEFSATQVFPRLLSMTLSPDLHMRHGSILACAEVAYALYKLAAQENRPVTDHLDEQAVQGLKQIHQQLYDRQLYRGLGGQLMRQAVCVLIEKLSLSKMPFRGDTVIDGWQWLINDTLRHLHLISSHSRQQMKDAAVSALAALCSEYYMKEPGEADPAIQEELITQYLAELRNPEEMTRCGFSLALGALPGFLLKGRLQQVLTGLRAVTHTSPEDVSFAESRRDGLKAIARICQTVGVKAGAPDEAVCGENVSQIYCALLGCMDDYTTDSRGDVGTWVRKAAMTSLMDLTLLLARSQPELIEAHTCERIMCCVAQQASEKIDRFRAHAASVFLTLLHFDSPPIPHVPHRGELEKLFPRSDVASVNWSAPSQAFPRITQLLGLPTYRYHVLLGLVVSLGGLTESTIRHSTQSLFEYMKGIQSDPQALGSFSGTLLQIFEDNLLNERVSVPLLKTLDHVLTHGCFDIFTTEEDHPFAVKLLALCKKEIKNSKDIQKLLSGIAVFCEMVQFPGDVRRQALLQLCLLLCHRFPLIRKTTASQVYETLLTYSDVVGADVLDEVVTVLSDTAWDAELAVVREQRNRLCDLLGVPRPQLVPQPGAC
UniProt O60220: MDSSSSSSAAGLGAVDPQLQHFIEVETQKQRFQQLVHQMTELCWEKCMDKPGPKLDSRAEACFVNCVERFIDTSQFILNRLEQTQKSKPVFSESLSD
UniProt O60907: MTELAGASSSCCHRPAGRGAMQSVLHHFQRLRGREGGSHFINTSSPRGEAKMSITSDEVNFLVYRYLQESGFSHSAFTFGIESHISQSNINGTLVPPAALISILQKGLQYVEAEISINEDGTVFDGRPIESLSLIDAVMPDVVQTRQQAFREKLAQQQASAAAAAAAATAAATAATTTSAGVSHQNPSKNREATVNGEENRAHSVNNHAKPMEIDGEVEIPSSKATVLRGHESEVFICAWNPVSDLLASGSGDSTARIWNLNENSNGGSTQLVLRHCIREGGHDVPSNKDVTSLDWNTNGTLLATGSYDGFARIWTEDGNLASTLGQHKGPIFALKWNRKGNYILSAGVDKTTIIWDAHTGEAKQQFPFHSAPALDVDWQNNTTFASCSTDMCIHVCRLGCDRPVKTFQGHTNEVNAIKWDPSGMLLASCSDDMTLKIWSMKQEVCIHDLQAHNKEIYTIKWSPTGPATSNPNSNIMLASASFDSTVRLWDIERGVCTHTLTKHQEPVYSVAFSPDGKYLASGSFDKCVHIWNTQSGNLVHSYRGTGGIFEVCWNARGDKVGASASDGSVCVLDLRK
UniProt O14925: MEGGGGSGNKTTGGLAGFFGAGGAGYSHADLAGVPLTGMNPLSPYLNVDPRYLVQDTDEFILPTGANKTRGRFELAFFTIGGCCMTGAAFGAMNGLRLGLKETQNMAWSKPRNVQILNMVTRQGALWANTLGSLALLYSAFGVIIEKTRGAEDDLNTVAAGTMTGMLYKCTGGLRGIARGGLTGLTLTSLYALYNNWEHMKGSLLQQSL

Tests used:
Assay in all cases: log2 fold change, soluble protein after heating vs DMSO (PISA); higher = thermal stabilisation; K562 cells, 10 uM, 30 min; active = over 0.2 and 3.5 SD of the protein, either way, in both replicates (recomputed)
erlotinib = compound: C#Cc1cccc(Nc2ncnc3cc(OCCOC)c(OCCOC)cc23)c1 [erlotinib]
Summary of the method: (§1)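 K562 cells at 2×10^6 cells/mL were treated with 10 μM compound for 30 min. Aliquots were heated for 3 min across 48°C-58°C, pooled, and extracted in PBS with 0.5% NP-40 at 4°C; soluble protein was the supernatant after 21,000xg for 90 min. Soluble protein was quantified by TMTpro 16plex LC-MS/MS with channel sums equalised, and reported as log2 fold change in thermal stability against DMSO controls, with values from duplicates.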

[1] = compound: C/C(=N\NC(=O)C1=CC(=CC=C1)S(=O)(=O)N2CCOCC2)/C3=C(C=CC(=C3)Cl)O
Summary of the method: as §1

[2] = compound: C1=CC(=C(C=C1Cl)C2=NC3=NC=CN=C3C(=N2)NC4=CC=NC=C4)F
Summary of the method: as §1

[3] = compound: C1=CC(=CC=C1C2=NC3=C(N2)C=C(C=C3)C(=O)N)OC4=CC=C(C=C4)Cl
Summary of the method: as §1

[4] = compound: C1=CC2=C(C=CC(=C2)/C=C\3/C(=O)NC(=NCC4=CC=CS4)S3)N=C1
Summary of the method: as §1

[5] = compound: C1=CC2=NC=CN=C2C=C1/C=C/3\C(=O)NC(=O)S3
Summary of the method: as §1

[6] = compound: C1=CC=C(C=C1)C2=NC(=C(N2)C3=CC=NC=C3)C4=CC(=C(C=C4)Cl)O
Summary of the method: as §1

[7] = compound: C1=CC=C2C(=C1)C3=NNC4=CC=CC(=C43)C2=O
Summary of the method: as §1

[8] = compound: C1CCN(C1)C(=O)NC2=CC=CC(=C2)NC3=NC=C(C(=N3)NCCC4=CN=CN4)Br
Summary of the method: as §1

[9] = compound: C1CN(CCC1(CC2=CC=C(C=C2)Cl)N)C3=NC=NC4=C3C=CN4
Summary of the method: as §1

IRAK-1-4 Inhibitor I = compound: C1COCCN1CCN2C3=CC=CC=C3N=C2NC(=O)C4=CC(=CC=C4)[N+](=O)[O-] [IRAK-1-4 Inhibitor I]
Summary of the method: as §1

ibrutinib = compound: C=CC(=O)N1CCC[C@@H](n2nc(-c3ccc(Oc4ccccc4)cc3)c3c(N)ncnc32)C1 [ibrutinib]
Summary of the method: as §1

[10] = compound: CC(=O)c1cnc2ccc(-c3cc(Cl)c(O)c(Cl)c3)nc2c1N[C@H]1CC[C@H](CN(C)C)CC1
Summary of the method: as §1

ralimetinib = compound: CC(C)(C)Cn1c(N)nc2ccc(-c3[nH]c(C(C)(C)C)nc3-c3ccc(F)cc3)nc21 [ralimetinib]
Summary of the method: as §1

[11] = compound: CC(C)(O)CC(=O)NCCn1ccc2ncnc(Nc3ccc(Oc4cccc(C(F)(F)F)c4)c(Cl)c3)c21
Summary of the method: as §1

[12] = compound: CC(C)C1=C2N=C(C=C(N2N=C1)NCC3=CC=CC=C3)NCCCCCCN
Summary of the method: as §1

[13] = compound: CC(C)C[C@@H](C=O)NC(=O)[C@H](CC(C)C)NC(=O)[C@H](CC(C)C)NC(=O)OCc1ccccc1
Summary of the method: as §1

pinometostat = compound: CC(C)N(C[C@H]1O[C@@H](n2cnc3c(N)ncnc32)[C@H](O)[C@@H]1O)[C@H]1C[C@@H](CCc2nc3cc(C(C)(C)C)ccc3[nH]2)C1 [pinometostat]
Summary of the method: as §1

[14] = compound: CC1=C(C(CC(=O)N1)C2=CC=C(C=C2)C(F)(F)F)C(=O)NC3=C(C=C4C(=C3)C=NN4)F
Summary of the method: as §1

[15] = compound: CC1=C(C2=C(C=C1)C(=O)C3=CC=CC=C3N2CCCN)C
Summary of the method: as §1

Measured: log2 fold change

TCEA1 (UniProt P23193)
inactive: erlotinib -0.034 | [1] -0.003 | [2] 0.085 | [3] -0.001 | [4] -0.036 | [5] 0.003 | [6] 0.001 | [7] 0.024 | [8] 0.001 | [9] 0.076 | IRAK-1-4 Inhibitor I 0.041 | ibrutinib -0.025 | [10] 0.001 | ralimetinib -0.038 | [11] 0 | [12] 0.029 | [13] -0.013 | pinometostat -0.068 | [14] 0.022 | [15] 0.011

THBS4 (UniProt P35443)
inactive: erlotinib -0.218 | [1] -0.23 | [2] 0.029 | [3] -0.106 | [4] 0.126 | [5] 0.011 | [6] 0.036 | [7] -0.22 | [8] 0.063 | [9] 0.154 | IRAK-1-4 Inhibitor I 0.022 | ibrutinib 0.163 | [10] 0.059 | ralimetinib -0.046 | [11] 0.204 | [12] 0.546 | [13] 0.086 | pinometostat -0.054 | [14] 0.075 | [15] -0.241

TBCB (UniProt Q99426)
inactive: erlotinib 0.027 | [1] 0.092 | [2] 0.076 | [3] -0.017 | [4] 0.016 | [5] 0.055 | [6] -0.002 | [7] -0.044 | [8] 0.018 | [9] -0.041 | IRAK-1-4 Inhibitor I 0.001 | ibrutinib -0.022 | [10] -0.039 | ralimetinib -0.008 | [11] -0.019 | [12] -0.013 | [13] 0.03 | pinometostat -0.004 | [14] 0.003 | [15] -0.036

TGFBR3 (UniProt Q03167)
inactive: erlotinib -0.06 | [1] -0.008 | [2] -0.03 | [3] 0.053 | [4] 0.006 | [5] -0.016 | [6] 0.104 | [7] -0.037 | [8] -0.006 | [9] 0.046 | IRAK-1-4 Inhibitor I -0.007 | ibrutinib 0.01 | [10] -0.059 | ralimetinib 0.02 | [11] 0.013 | [12] 0.181 | [13] 0.001 | pinometostat 0.088 | [14] 0.039 | [15] -0.083

THG1L (UniProt Q9NWX6)
inactive: erlotinib -0.004 | [1] 0.012 | [2] 0.016 | [3] 0.012 | [4] 0.026 | [5] 0.061 | [6] -0.008 | [7] 0.01 | [8] 0.004 | [9] 0.021 | IRAK-1-4 Inhibitor I -0.014 | ibrutinib -0.021 | [10] 0.019 | ralimetinib -0.079 | [11] 0.005 | [12] 0.026 | [13] -0.05 | pinometostat -0.053 | [14] -0.007 | [15] -0.022

TIMM17A (UniProt Q99595)
inactive: erlotinib -0.01 | [1] -0.018 | [2] 0.1 | [3] 0.014 | [4] -0.158 | [5] 0.015 | [6] -0.014 | [7] 0.021 | [8] -0.019 | [9] 0.051 | IRAK-1-4 Inhibitor I 0.071 | ibrutinib 0.029 | [10] -0.02 | ralimetinib -0.038 | [11] 0.02 | [12] 0.055 | [13] 0.012 | pinometostat 0.002 | [14] 0.011 | [15] -0.163

TIMMDC1 (UniProt Q9NPL8)
inactive: erlotinib -0.021 | [1] -0.034 | [2] 0.051 | [3] -0.019 | [4] 0.064 | [5] 0.02 | [6] 0.082 | [7] -0.025 | [8] 0.019 | [9] 0.07 | IRAK-1-4 Inhibitor I 0.029 | ibrutinib 0.032 | [10] 0.048 | ralimetinib 0.016 | [11] -0.029 | [12] 0.027 | [13] -0.029 | pinometostat -0.049 | [14] 0.025 | [15] -0.054

TIA1 (UniProt P31483)
inactive: erlotinib 0.086 | [1] 0.003 | [2] -0.073 | [3] 0.038 | [4] 0.028 | [5] -0.032 | [6] -0.057 | [7] -0.034 | [8] -0.002 | [9] -0.03 | IRAK-1-4 Inhibitor I 0.096 | ibrutinib 0.032 | [10] -0.019 | ralimetinib -0.028 | [11] 0.079 | [12] 0.038 | [13] -0.033 | pinometostat -0.024 | [14] 0.017 | [15] 0.172

TESC (UniProt Q96BS2)
inactive: erlotinib -0.029 | [1] -0.015 | [2] 0.075 | [3] 0.126 | [4] 0.066 | [5] 0.023 | [6] 0.001 | [7] -0.018 | [8] 0.02 | [9] -0.01 | IRAK-1-4 Inhibitor I -0.01 | ibrutinib 0.017 | [10] -0.018 | ralimetinib 0.194 | [11] 0.001 | [12] -0.045 | [13] 0.187 | pinometostat -0.009 | [14] -0.011 | [15] -0.277

TICAM2 isoform 2 (UniProt Q86XR7)
inactive: erlotinib -0.008 | [1] 0.05 | [2] 0.247 | [3] 0.045 | [4] -0.001 | [5] 0.016 | [6] 0.055 | [7] -0.007 | [8] 0.029 | [9] 0.074 | IRAK-1-4 Inhibitor I -0.002 | ibrutinib 0.02 | [10] 0.059 | ralimetinib 0.028 | [11] -0.019 | [12] 0.002 | [13] -0.111 | pinometostat -0.054 | [14] -0.011 | [15] -0.011

TBL2 (UniProt Q9Y4P3)
inactive: erlotinib -0.093 | [1] 0.022 | [2] -0.354 | [3] 0.01 | [4] -0.013 | [5] -0.011 | [6] -0.029 | [7] 0.021 | [8] -0.067 | [9] -0.112 | IRAK-1-4 Inhibitor I -0.115 | ibrutinib -0.043 | [10] 0.009 | ralimetinib 0.183 | [11] 0.069 | [12] -0.053 | [13] 0.157 | pinometostat 0.282 | [14] 0.016 | [15] 0.106

TFR2 (UniProt Q9UP52)
inactive: erlotinib 0.009 | [1] -0.019 | [2] -0.012 | [3] -0.015 | [4] 0.018 | [5] 0.016 | [6] -0.039 | [7] -0.023 | [8] 0.03 | [9] 0.018 | IRAK-1-4 Inhibitor I 0.018 | ibrutinib 0.008 | [10] -0.011 | ralimetinib -0.018 | [11] 0.037 | [12] -0.146 | [13] 0.02 | pinometostat 0.02 | [15] -0.128

TBCD (UniProt Q9BTW9)
inactive: erlotinib 0.022 | [1] 0.06 | [2] 0.059 | [3] 0.022 | [4] 0.069 | [5] 0.029 | [6] -0.025 | [7] -0.01 | [8] -0.016 | [9] -0.021 | IRAK-1-4 Inhibitor I 0.019 | ibrutinib -0.019 | [10] -0.004 | ralimetinib 0.01 | [11] -0.034 | [12] -0.083 | [13] 0.01 | pinometostat -0.061 | [15] -0.086

Random excerpt: 2 entries already listed.
TESC (UniProt Q96BS2)
inactive: erlotinib -0.029 | [1] -0.015 | [2] 0.075 | [3] 0.126 | [4] 0.066 | [5] 0.023 | [6] 0.001 | [7] -0.018 | [8] 0.02 | [9] -0.01 | IRAK-1-4 Inhibitor I -0.01 | ibrutinib 0.017 | [10] -0.018 | ralimetinib 0.194 | [11] 0.001 | [12] -0.045 | [13] 0.187 | pinometostat -0.009 | [14] -0.011 | [15] -0.277

TFR2 (UniProt Q9UP52)
inactive: erlotinib 0.009 | [1] -0.019 | [2] -0.012 | [3] -0.015 | [4] 0.018 | [5] 0.016 | [6] -0.039 | [7] -0.023 | [8] 0.03 | [9] 0.018 | IRAK-1-4 Inhibitor I 0.018 | ibrutinib 0.008 | [10] -0.011 | ralimetinib -0.018 | [11] 0.037 | [12] -0.146 | [13] 0.02 | pinometostat 0.02 | [15] -0.128

(listing goes on)

TIMM8A (UniProt O60220)
inactive: erlotinib -0.092 | [1] 0.036 | [2] 0.207 | [3] 0.041 | [4] 0.078 | [5] 0.035 | [6] 0.076 | [7] 0.044 | [8] -0.044 | [9] -0.097 | IRAK-1-4 Inhibitor I -0.079 | ibrutinib 0.02 | [10] -0.011 | ralimetinib -0.037 | [11] -0.056 | [12] -0.014 | [13] -0.202 | pinometostat 0.064 | [14] 0.09 | [15] 0.269

TBL1X (UniProt O60907)
inactive: erlotinib -0.047 | [1] 0.076 | [2] 0.016 | [3] 0.021 | [4] 0.002 | [5] 0.032 | [6] -0.046 | [7] -0.034 | [8] -0.026 | [9] 0.017 | IRAK-1-4 Inhibitor I 0.029 | ibrutinib 0.011 | [10] -0.094 | ralimetinib -0.085 | [11] -0.053 | [12] 0.037 | [13] 0.003 | pinometostat 0.002 | [14] 0.027 | [15] 0.007

TIMM23 (UniProt O14925)
inactive: erlotinib 0.002 | [1] -0.036 | [2] 0.006 | [3] 0.019 | [4] -0.064 | [5] 0.078 | [6] 0.105 | [7] -0.03 | [8] 0.004 | [9] 0.057 | IRAK-1-4 Inhibitor I 0.009 | ibrutinib 0.015 | [10] 0.011 | ralimetinib 0.075 | [11] -0.004 | [12] 0.038 | [13] -0.039 | pinometostat -0.067 | [14] -0.013 | [15] -0.036
